Data as given in PubChem BioAssay AID1259323 (Peter MacCallum Cancer Centre, 2017)
The deposit covers 715 reagents; shown is a random part of them. Over the whole deposit, 91 (13%) were called active. 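Active pools lower the sustained TRPV4 phase but spare the early PAR2 peak; PAR2 agonist and dose are not stated; pools repeat across wells.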 A reagent listed more than once was tested more than once; the source does not tell the runs apart. The record does not give: the amount of reagent, the time to read-out.

- Test: 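Kinases required for PAR2 signalling to open the TRPV4 channel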 (primary screen)
- Cell system: human HEK293 cells stably carrying inducible TRPV4
- Knock-down reagent: siRNA pool against human genes
- Treatment: PAR2 activation; agonist identity and dose not given
- Read-out: 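Signal of a calcium dye in live cells following PAR2 activation, plateau and early peak normalised to mock transfection on each plate, mean of duplicate plates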
- Scale: TRPV4 plateau calcium, % of mock: higher = stronger sustained TRPV4 calcium entry than mock; PAR2 peak calcium, % of mock: higher = stronger early PAR2 calcium response than mock
- Rule for the call: 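Active when sustained TRPV4 plateau calcium falls below 90% of mock while the early PAR2 peak remains above 79% of mock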

| gene symbol | TRPV4 plateau calcium, % of mock | PAR2 peak calcium, % of mock | Call |
| --- | --- | --- | --- |
| CDKN1C | 93.2 | 98.6 | inactive |
| CDK15 | 89.3 | 88.9 | active |
| DDR1 | 97.8 | 99.8 | inactive |
| PFKP | 108 | 106 | inactive |
| PDGFRL | 102 | 105 | inactive |
| MAP2K5 | 104 | 107 | inactive |
| PRKX | 128 | 119 | inactive |
| PDK4 | 90.8 | 96 | inactive |
| PRKCZ | 96.5 | 101 | inactive |
| PRAG1 | 109 | 104 | inactive |
| PHKA2 | 96.9 | 92.1 | inactive |
| BRDT | 109 | 108 | inactive |
| STK36 | 109 | 102 | inactive |
| GK2 | 103 | 99.4 | inactive |
| CLK4 | 90.5 | 93.7 | inactive |
| NME1 | 96 | 98.2 | inactive |
| PHKG1 | 97.3 | 91.6 | inactive |
| GUK1 | 91.1 | 98.9 | inactive |
| BUB1B | 98.3 | 103 | inactive |
| MAP3K2 | 101 | 98.5 | inactive |
| PSTK | 98.4 | 98.4 | inactive |
| PFKFB1 | 107 | 105 | inactive |
| PNKP | 105 | 100 | inactive |
| DCK | 109 | 102 | inactive |
| DAPK2 | 109 | 105 | inactive |
| DAPK3 | 110 | 109 | inactive |
| ULK4 | 105 | 102 | inactive |
| PRKY | 107 | 103 | inactive |
| ULK3 | 95.1 | 101 | inactive |
| CDK7 | 97 | 99.9 | inactive |
| CHEK2 | 97.8 | 97 | inactive |
| BRAF | 96.1 | 92.7 | inactive |
| CALM3 | 91.8 | 103 | inactive |
| TLK2 | 105 | 102 | inactive |
| MPP1 | 100 | 93.9 | inactive |
| DAPK1 | 93.8 | 92.3 | inactive |
| ADCK5 | 94.3 | 104 | inactive |
| CSNK2A2 | 90.4 | 91.6 | inactive |
| MPP3 | 96.1 | 101 | inactive |
| NEK6 | 119 | 108 | inactive |
| PRKCSH | 93.3 | 101 | inactive |
| STRADB | 94.8 | 103 | inactive |
| SHPK | 89.9 | 90.4 | active |
| CAMK1D | 96.9 | 95.8 | inactive |
| DGKI | 100 | 105 | inactive |
| DTYMK | 94.3 | 92.7 | inactive |
| NADK | 101 | 101 | inactive |
| MAP3K10 | 107 | 104 | inactive |
| ABL2 | 87.5 | 92 | active |
| RPS6KA1 | 95.5 | 95.6 | inactive |
| CAMKK2 | 101 | 102 | inactive |
| TSSK2 | 98.1 | 95 | inactive |
| PLK1 | 75.9 | 67.9 | inactive |
| LMTK3 | 94.7 | 96 | inactive |
| BCKDK | 97.7 | 100 | inactive |
| TRIB2 | 111 | 104 | inactive |
| CDK3 | 96.2 | 104 | inactive |
| CRKL | 102 | 101 | inactive |
| UCK2 | 104 | 91.5 | inactive |
| MYLK4 | 99.2 | 107 | inactive |
| ABL1 | 95.2 | 97.8 | inactive |
| MAP3K19 | 113 | 107 | inactive |
| MAST3 | 101 | 104 | inactive |
| BRSK1 | 92.2 | 88 | inactive |
| BRSK1 | 94 | 95.1 | inactive |
| TSSK4 | 102 | 101 | inactive |
| CDK16 | 109 | 103 | inactive |
| GRK1 | 113 | 103 | inactive |
| GRK7 | 92.7 | 93.4 | inactive |
| MKNK1 | 103 | 97.3 | inactive |
| MAPK9 | 85.6 | 89.7 | active |
| CDKN2C | 112 | 105 | inactive |
| EPHB2 | 91.8 | 87.6 | inactive |
| TYRO3 | 99.1 | 97.6 | inactive |
| PHKA1 | 99.7 | 99.7 | inactive |
| MAP3K4 | 96.7 | 93.5 | inactive |
| MARK4 | 93 | 96.6 | inactive |
| ITPK1 | 78.8 | 92.5 | active |
| PHKG2 | 120 | 104 | inactive |
| RPS6KA2 | 103 | 100 | inactive |
| INSRR | 98 | 106 | inactive |
| PBK | 101 | 99 | inactive |
| HCK | 89.6 | 93.1 | active |
| PLK4 | 88.4 | 95.4 | active |

12 entries from above, ordered by “PAR2 peak calcium, % of mock”, high to low:
| gene symbol | TRPV4 plateau calcium, % of mock | PAR2 peak calcium, % of mock | Call |
| --- | --- | --- | --- |
| CDKN2C | 112 | 105 | inactive |
| CDK16 | 109 | 103 | inactive |
| GRK1 | 113 | 103 | inactive |
| PHKA1 | 99.7 | 99.7 | inactive |
| TYRO3 | 99.1 | 97.6 | inactive |
| MKNK1 | 103 | 97.3 | inactive |
| MARK4 | 93 | 96.6 | inactive |
| MAP3K4 | 96.7 | 93.5 | inactive |
| GRK7 | 92.7 | 93.4 | inactive |
| ITPK1 | 78.8 | 92.5 | active |
| MAPK9 | 85.6 | 89.7 | active |
| EPHB2 | 91.8 | 87.6 | inactive |
